{
  "source": "PubChem BioAssay AID1309",
  "about": "(The Scripps Research Institute Molecular Screening Center, 2008)",
  "note": "Out of some 1,200 compounds screened, about 130 (11%) were called active. No stated cut-off is given here; in the data, active means activation above about 120%; inactive means the rest. The list shows a part of the results, in another mix than the full data.",
  "data": [
    {"assay": "activation of NF-kB-driven transcription – cell-based, counter-screen for STAT3 activator project (AID 1309);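 further: reporter induced by TNF-alpha stimulation; 100% = median of stimulated DMSO wells and 0% = no signal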", "conditions": "human cells, NF-kappaB reporter activation; at 5.7 µM; active compounds read high", "values": [
      {"compound": "CCC/C(=N\\O)c1c[nH]c2ccccc12", "activation (% of control)": "inactive: 103%"},
      {"compound": "COc1cc(-n2c(=S)[nH]c3ccc(C)cc3c2=O)c(Cl)cc1Cl", "activation (% of control)": "inactive: 100%"}
    ]}
  ]
}
